Literature values as cited in patent publication US5646146A, “Heterocyclic compounds and their preparation and use” (Novo Nordisk A/S, priority 1993, dated 1997).
For at least one compound, name, drawing or mass did not settle the structure.

System: glycine site coupled to the NMDA ionophore complex
Conditions: literature citations; cited from earlier work

For `NC1(C(=O)O)CC1` [1-amino-cyclopropanecarboxylate], the “activity at the glycine site (agonist/antagonist, in words)” value is given as “partial agonists”.
